Measured values reported in patent US20070190226A1, “Seasoning” (Kyowa Hakko Food Specialites Co., Ltd., priority 2003, published 2007).

Test: Sensory test of cream soup with additive, scored against cream soup to which nothing was added
Conditions: average of scores by 15 members, points 1 to 7, control = point 3; additive per 100 ml cream soup as in Table 2 (fractions 100 mg, peptides 2 mg)
From the text: (b) To 40 g of a cream soup premix comprising 44.6% (W/W) of white roux (manufactured by Hachi Foods Co., Ltd.), 3.5% (W/W) of salt, 5.1% (W/W) of granulated sugar, 11.0% (W/W) of powdered fat and oil (manufactured by UEDA OILS AND FATS MFG CO., LTD.), 7.1% (W/W) of powdered butter (manufactured by SANKYO FOODS INDUSTRY CORP.), 7.1% (W/W) of cheese powder (manufactured by Rokko Butter Co., LTD.), 8.1% (W/W) of skimmed milk powder (YOTSUBA Inc.), 5.1% (W/W) of waxy corn starch (manufactured by NIPPON STARCH CHEMICAL CO., LTD.), 2.5% (W/W) of sodium glutamate (manufactured by Kyowa Hakko Kogyo Co., Ltd.), 0.1% (W/W) of 5′-ribonucleotide (manufactured by Kyowa Hakko Kogyo Co., Ltd.), 3.5% (W/W) of chicken bouillon (manufactured by Kyowa Hakko Kogyo Co., Ltd.), 0.1% (W/W) of white pepper (manufactured by Kaneka Sun Spice Co., Ltd.), 0.2% (W/W) of Laurel powder (manufactured by Kaneka Sun Spice Co., Ltd.) and 2.0% (W/W) of powder of vegetable extract (manufactured by Kyowa Hakko Kogyo Co., Ltd.) was added hot water to make the total volume of 1000 ml. Thus, a cream soup was prepared.
(c) In a similar manner to the above (b) except that the additive shown in Table 2 was added in an amount shown in Table 2 in stead of addition of the freeze-dried powder of the solution of gelatin decomposed with collagenase or the freeze-dried powder of the solution of gelatin decomposed with pepsin, the sensory test was conducted.
In table 2, any one of the peptide consisting of an amino acid sequence represented by Gly-Pro-4Hyp, the peptide consisting of an amino acid sequence represented by Gly-Pro-Ala, the peptide consisting of an amino acid sequence represented by or Gly-Gly-Gly used was manufactured by Bachem.
Evaluation was made by giving point 3 to the “continuity of umami”, “thickness and mouthfullness” and “body taste” of the control, respectively, point 2 to the case in which somewhat weaker sensation than the control was evoked, and point 1 to the case in which weaker sensation than the case of point 2 was evoked. When stronger than the control, evaluation was made giving point 4 to somewhat stronger case, point 5 to the case stronger than the case of point 4, point 6 to the case stronger than the case of point 5, and point 7 to the case stronger than the case of point 6.
Average of scores by the 15 members was determined for the “continuity of umami”, “thickness and mouthfullness” and “body taste”.

Gly-Pro-4Hyp [Test section 4]
significantly enhanced: Body taste | Continuity of umami | Thickness and mouthfullness

Gly-Pro-Ala [Test section 5]
significantly enhanced: Body taste | Continuity of umami | Thickness and mouthfullness
